Whole data set: some 33,000 sequences, median “E-score (-0.5 to 0.5)” near -8e-05, cut for the highest 2% near 0.23. The list shows a part of the results.
target: T1, Nrg2 (UniProt P38082); experiment: PBM E-score (8-mer binding enrichment) (E-score (-0.5 to 0.5)); higher = stronger / more preferred TF binding; conditions: protein concentration: 100 nM; construct: GST-full length
T1 sequence: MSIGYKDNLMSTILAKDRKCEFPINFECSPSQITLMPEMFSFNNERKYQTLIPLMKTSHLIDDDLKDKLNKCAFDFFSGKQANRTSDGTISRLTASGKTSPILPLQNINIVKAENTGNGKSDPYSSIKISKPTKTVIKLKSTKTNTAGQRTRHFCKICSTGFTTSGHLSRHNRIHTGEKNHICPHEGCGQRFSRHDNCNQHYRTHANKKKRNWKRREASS
Method in brief: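 PURExpress in vitro transcription/translation supplied GST-tagged yeast transcription factors, either full-length or DNA-binding domain. Applied at about 100-200 nM to universal all-10-mer Agilent arrays double-stranded by primer extension, the bound protein was detected with fluorescent anti-GST. E-scores, modified Wilcoxon-Mann-Whitney statistics, were given by the Universal PBM Analysis Suite to ungapped eight-base words pooled with their reverse complements after masliner normalisation.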

| Sequence | PBM E-score |
| --- | --- |
| AGACACGC | -0.202 |
| GTAACTCA | -0.0308 |
| GAGACGCC | -0.154 |
| ACACTGCG | -0.0192 |
| CAAACGGA | 0.00713 |
| AAGGAGGG | -0.163 |
| CTACCTCC | 0.0678 |
| AAAGTGCA | -0.00715 |
| AAAAAGGC | -0.0272 |
| ACCCATAC | 0.131 |
| ACTGCCCT | -0.0634 |
| AATCTCGA | 0.142 |
| CGTGGCCC | -0.283 |
| CGGATAAG | 0.0735 |
| CGACTGCG | -0.0845 |
| GGGGTGCA | 0.104 |
| ACCATATA | 0.207 |
| ACCAAATG | 0.036 |
| ACCCTAGT | -0.0371 |
| CGAAACAA | 0.175 |
| GTCATGAC | 0.085 |
| AAGAGCGA | -0.07 |
| GCAATCCA | -0.00518 |
| GAAACTCA | 0.00034 |
| ATTTCGAC | -0.0855 |

Reformatted field by field: part of the list above
AGACACGC
  PBM E-score: -0.202
AAGGAGGG
  PBM E-score: -0.163

More records

| Sequence | PBM E-score |
| --- | --- |
| ACCGCTCA | 0.0791 |
| GGGCCCAC | 0.203 |
| CGTCGCTC | -0.0552 |
| AATTTGAT | 0.0437 |
| CGGGAGTA | -0.087 |
| GCAACAGC | -0.0566 |
| ACTCGGAA | 0.0922 |
| ACAACCGC | 0.184 |
| TTCAGCAA | 0.0275 |
| CCCCAATC | 0.0395 |
| TATCGGCA | 0.131 |
| AGTCGCAG | 0.00843 |
| TCCTACAA | 0.00569 |
| GGTTGGAA | 0.0303 |
| ACCAGGCT | -0.153 |
| GGCCACTA | -0.0817 |
| CAACCCAA | -0.182 |
| GCCCCGTA | -0.132 |
| TGCCCACA | -0.0506 |
| ATGAGTAG | 0.047 |
| ACGTTGTC | -0.025 |
| CGAGACAG | 0.168 |
| AATAAACT | 0.0635 |
| GACCTATC | -0.0451 |
| CATGAGCG | 0.105 |

Reprinted at random: 3 records from the list

| Sequence | PBM E-score |
| --- | --- |
| TGCCCACA | -0.0506 |
| TATCGGCA | 0.131 |
| GGTTGGAA | 0.0303 |

Additional results.

| Sequence | PBM E-score |
| --- | --- |
| GCCCTAGA | -0.238 |
| GAAAGTTA | 0.125 |
| AAGCACGC | 0.0373 |
| CCCCCCGA | -0.421 |
| ATGGTCCG | 0.171 |
| ACATTTCG | 0.0534 |
| GTCCTGCA | -0.122 |
| CAAGAAAC | 0.0958 |
| ACATCAGT | 0.119 |
| ATGCGGGC | 0.12 |
| CGGTGTTA | -0.191 |
| ATGCACGC | 0.0308 |
| CGTACAAC | 0.00972 |
| ACTAGGTC | 0.14 |
| GATCGCCC | 0.107 |
| TCTTATCA | 0.129 |
| ATTACCCA | 0.0885 |
| AATGTTTA | -0.0428 |
| CGATTTAC | 0.0291 |
| ACGAGCCG | -0.0621 |
| CGACGGCC | -0.00924 |
| ACAAGCTA | -0.0632 |
| CCTTCACC | -0.0756 |
| AGATTGGG | 0.0805 |
| TGAATTAA | 0.273 |

| Sequence | PBM E-score |
| --- | --- |
| ACGGGGTG | 0.0543 |
| CAACTATA | -0.175 |
| ACCGTCCA | -0.00229 |
| AAAACGCT | -0.212 |
| AGGAATTC | -0.0557 |
| CACCGCGA | -0.179 |
| CAACGGTG | -0.187 |
| ATGCAGCA | 0.0643 |
| AAAATTTC | 0.0206 |
| ACGTCAAT | 0.0297 |
| AGGAGCCC | -0.0807 |
| AAGTCGAC | 0.145 |
| AACGGTCG | -0.064 |
| CCTCGGCG | 0.168 |
| TGGGCTAA | 0.0966 |
| AAAAAAAG | 0.0862 |
| AAAACACA | 0.132 |
| CCTCAGTC | -0.0912 |
| AGCAATTC | 0.0177 |
| AGGGCGCG | 0.0238 |
| CTTCTTAA | 0.052 |
| AAATGCTC | 0.00815 |
| CTTCAACA | 0.0511 |
| GATGAAAA | 0.0467 |
| CGCCCGAA | -0.0417 |

| Sequence | PBM E-score |
| --- | --- |
| AAACTCAG | 0.0476 |
| CCACCATC | -0.163 |
| ATTCCATA | 0.106 |
| AAAGTCGA | -0.0895 |
| GAGCACGC | -0.175 |
| ACCGTCTA | -0.157 |
| AATCATAC | 0.116 |
| AACACGCT | -0.0211 |
| CTGTGTCC | -0.107 |
| CTTTTCTC | 0.00218 |
| ACTCTAGC | -0.23 |
| AAGATCAG | -0.0343 |
| ACTCGGTA | -0.06 |
| TAGCCCTA | -0.117 |
| CCTATTCG | -0.116 |
| CGCGCAGC | 0.0142 |
| CTCTGATA | 0.00461 |
| TAGGGCGA | -0.102 |
| CAAGTCTA | -0.0983 |
| CCTGGTCC | 0.16 |
| TAATGAGA | 0.0314 |
| CCCTCCGA | -0.124 |
| AGTGATTA | 0.135 |
| AATCTGAC | 0.0791 |
| CATACTTA | 0.0179 |

| Sequence | PBM E-score |
| --- | --- |
| GGCTCTCA | -0.263 |
| ATAGAAAT | 0.22 |
| CGACTATC | 0.0892 |
| ATCCCCAA | 0.114 |
| AGGGTGGA | 0.0748 |
| ACTTACGA | 0.192 |
| CAGTGTAG | -0.0273 |
| ATAACCTC | -0.0408 |
| ATAGTATG | 0.0928 |
| CACCCGCC | 0.2 |
| ACCTCAAA | -0.00797 |
| TAGGAGGA | -0.083 |
| CCCTGGCA | 0.207 |
| GAAAAACA | -0.0315 |
| GGAACTAC | 0.0701 |
| CGGGAAGC | 0.00086 |
| CTGGCGCA | -0.117 |
| GCTTTGCA | -0.195 |
| CCGTCCTC | -0.196 |
| AACCTTTA | -0.164 |
| AAACCGGA | 0.0713 |
| CTTACGGC | -0.191 |
| AACACCCC | 0.0806 |
| CTTTTAGA | -0.167 |
| GTGCCCAC | -0.0915 |

| Sequence | PBM E-score |
| --- | --- |
| CCAAGTAA | 0.0954 |
| CCCCCGCC | -0.279 |
| GACACAGC | -0.105 |
| GACGAGTA | 0.113 |
| AGAGTTAT | 0.125 |
| ACGTCTCT | -0.0688 |
| CCATCATC | 0.00441 |
| AACGCTAG | -0.141 |
| CGATGTCA | 0.0217 |
| TCCAGGCA | 0.0917 |
| AGAACGAG | 0.00716 |
| ATATCAAC | 0.127 |
| GCTCACAA | 0.0948 |
| ATATATAT | 0.107 |
| CTAGGCTC | -0.334 |
| ACCGCGTG | -0.0595 |
| CGTCCAAC | -0.208 |
| GTCCCGAA | -0.069 |
| AAGACACA | -0.122 |
| ACCGGGTA | 0.00068 |
| CAGCATGA | -0.137 |
| AAATATCT | 0.0658 |

Some of the entries so far, with each value named:
CTAGGCTC
  PBM E-score = -0.334
ACCGCGTG
  PBM E-score = -0.0595
CGTCCAAC
  PBM E-score = -0.208
GTCCCGAA
  PBM E-score = -0.069
